# According to US20100287636A1, “COMPOSITIONS AND METHODS FOR INHIBITING INDUCIBLE T CELL KINASE (ITK) AND TREATING ASTHMA AND BRONCHIAL INFLAMMATIONS” (San Diego State University Foundation, dba San Diego State …, priority 2007, published 2010):
# Amino acid sequences for entries named in this document (tags omitted). Residues count along the entry.
# UniProt P06240, 2-509: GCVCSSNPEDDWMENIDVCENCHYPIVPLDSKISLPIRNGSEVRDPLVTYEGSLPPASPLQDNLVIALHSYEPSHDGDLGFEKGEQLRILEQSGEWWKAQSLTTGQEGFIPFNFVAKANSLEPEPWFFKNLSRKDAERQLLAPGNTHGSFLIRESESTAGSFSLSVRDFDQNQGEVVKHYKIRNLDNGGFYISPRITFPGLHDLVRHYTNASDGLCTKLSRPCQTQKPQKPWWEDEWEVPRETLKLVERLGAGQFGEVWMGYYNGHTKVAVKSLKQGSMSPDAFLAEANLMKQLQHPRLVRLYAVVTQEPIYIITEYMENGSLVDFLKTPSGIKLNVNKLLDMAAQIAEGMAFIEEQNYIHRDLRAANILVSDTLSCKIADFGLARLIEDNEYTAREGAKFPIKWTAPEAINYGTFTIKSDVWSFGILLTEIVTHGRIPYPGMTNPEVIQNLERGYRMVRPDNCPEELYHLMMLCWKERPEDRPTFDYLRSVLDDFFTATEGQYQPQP
# Entries after “also recorded” stand apart in the source; their conditions may differ. At least one peptide structure holds a part that was inferred or is arguable (an end, a ring closure or a residue). No end group written: not given here.
# Key:
# [1] = molecular target: T1, ITK (Homo sapiens, UniProt Q08881); test: phosphorylation of ITK on Tyr 511 in Jurkat cells (flow cytometry); assay type: cell-based
# T1 construct: endogenous in cells; host or cells: Jurkat T cells
# T1 sequence (Q08881 1-620): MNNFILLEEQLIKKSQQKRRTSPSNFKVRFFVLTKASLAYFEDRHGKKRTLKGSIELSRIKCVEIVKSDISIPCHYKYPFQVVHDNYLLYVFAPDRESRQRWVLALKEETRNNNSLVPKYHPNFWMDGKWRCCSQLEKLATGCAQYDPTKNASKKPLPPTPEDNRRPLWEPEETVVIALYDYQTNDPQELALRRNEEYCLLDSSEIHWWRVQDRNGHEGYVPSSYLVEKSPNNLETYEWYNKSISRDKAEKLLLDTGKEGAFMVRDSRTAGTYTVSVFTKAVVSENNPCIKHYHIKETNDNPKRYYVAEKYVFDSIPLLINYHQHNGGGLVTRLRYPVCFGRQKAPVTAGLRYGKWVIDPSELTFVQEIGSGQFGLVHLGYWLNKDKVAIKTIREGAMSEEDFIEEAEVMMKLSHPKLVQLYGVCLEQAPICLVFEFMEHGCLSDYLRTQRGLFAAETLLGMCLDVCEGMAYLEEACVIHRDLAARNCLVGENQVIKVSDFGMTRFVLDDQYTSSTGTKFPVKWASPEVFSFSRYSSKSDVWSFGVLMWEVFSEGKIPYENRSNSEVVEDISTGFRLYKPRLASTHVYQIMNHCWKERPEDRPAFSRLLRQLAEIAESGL
# Procedure: (§1) FIG. 6. […] Following stimulation the cells were stained with specific anti-ITK phosphotyrosine antibodies obtained from a commercial source (BD Biosciences) and following the manufacturer's instructions for intracytoplasmic staining. The stained samples were analyzed in a flow cytometer and the percent phosphorylation related to control (100%) was quantified. […] Fifty percent inhibition was achieved by approximately 1 μM peptide
# [2] = molecular target: T2, ITK-SLP 76 association (Mus musculus, UniProt Q03526); test: in vivo delivery: inducible ITK-SLP 76 association in splenic cells; conditions: mice injected intraperitoneally 24 h and 30 min before sacrifice; splenic cells stimulated
# T2 construct: from tissue; host or cells: mouse spleen (splenic cells)
# T2 sequence (Q03526 1-625): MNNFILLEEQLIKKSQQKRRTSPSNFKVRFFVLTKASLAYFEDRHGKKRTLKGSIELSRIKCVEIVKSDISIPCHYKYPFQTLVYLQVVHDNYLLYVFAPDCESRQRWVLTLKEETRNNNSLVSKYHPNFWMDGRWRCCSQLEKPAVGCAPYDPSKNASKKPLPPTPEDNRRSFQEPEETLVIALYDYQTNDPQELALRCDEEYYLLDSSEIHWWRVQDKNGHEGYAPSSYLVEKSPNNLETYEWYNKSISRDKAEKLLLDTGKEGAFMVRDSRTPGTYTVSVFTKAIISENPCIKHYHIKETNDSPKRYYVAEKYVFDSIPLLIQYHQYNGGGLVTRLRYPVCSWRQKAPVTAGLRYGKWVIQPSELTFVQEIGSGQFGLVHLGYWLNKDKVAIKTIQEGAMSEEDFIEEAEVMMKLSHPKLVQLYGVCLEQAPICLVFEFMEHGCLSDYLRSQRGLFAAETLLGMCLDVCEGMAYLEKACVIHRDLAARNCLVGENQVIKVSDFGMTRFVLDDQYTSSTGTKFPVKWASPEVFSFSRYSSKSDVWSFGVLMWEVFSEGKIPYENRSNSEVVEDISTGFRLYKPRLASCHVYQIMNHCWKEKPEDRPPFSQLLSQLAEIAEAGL
# [3] = molecular target: T3, SLP 76-PLCγ1 interaction (Mus musculus, UniProt Q62077); test: in vivo delivery: interaction between SLP 76 and PLCγ1 in splenic cells; conditions: mice injected intraperitoneally; splenic cells stimulated
# T3 construct: from tissue; host or cells: mouse spleen (splenic cells)
# T3 sequence (Q62077 2-1302 limits assumed): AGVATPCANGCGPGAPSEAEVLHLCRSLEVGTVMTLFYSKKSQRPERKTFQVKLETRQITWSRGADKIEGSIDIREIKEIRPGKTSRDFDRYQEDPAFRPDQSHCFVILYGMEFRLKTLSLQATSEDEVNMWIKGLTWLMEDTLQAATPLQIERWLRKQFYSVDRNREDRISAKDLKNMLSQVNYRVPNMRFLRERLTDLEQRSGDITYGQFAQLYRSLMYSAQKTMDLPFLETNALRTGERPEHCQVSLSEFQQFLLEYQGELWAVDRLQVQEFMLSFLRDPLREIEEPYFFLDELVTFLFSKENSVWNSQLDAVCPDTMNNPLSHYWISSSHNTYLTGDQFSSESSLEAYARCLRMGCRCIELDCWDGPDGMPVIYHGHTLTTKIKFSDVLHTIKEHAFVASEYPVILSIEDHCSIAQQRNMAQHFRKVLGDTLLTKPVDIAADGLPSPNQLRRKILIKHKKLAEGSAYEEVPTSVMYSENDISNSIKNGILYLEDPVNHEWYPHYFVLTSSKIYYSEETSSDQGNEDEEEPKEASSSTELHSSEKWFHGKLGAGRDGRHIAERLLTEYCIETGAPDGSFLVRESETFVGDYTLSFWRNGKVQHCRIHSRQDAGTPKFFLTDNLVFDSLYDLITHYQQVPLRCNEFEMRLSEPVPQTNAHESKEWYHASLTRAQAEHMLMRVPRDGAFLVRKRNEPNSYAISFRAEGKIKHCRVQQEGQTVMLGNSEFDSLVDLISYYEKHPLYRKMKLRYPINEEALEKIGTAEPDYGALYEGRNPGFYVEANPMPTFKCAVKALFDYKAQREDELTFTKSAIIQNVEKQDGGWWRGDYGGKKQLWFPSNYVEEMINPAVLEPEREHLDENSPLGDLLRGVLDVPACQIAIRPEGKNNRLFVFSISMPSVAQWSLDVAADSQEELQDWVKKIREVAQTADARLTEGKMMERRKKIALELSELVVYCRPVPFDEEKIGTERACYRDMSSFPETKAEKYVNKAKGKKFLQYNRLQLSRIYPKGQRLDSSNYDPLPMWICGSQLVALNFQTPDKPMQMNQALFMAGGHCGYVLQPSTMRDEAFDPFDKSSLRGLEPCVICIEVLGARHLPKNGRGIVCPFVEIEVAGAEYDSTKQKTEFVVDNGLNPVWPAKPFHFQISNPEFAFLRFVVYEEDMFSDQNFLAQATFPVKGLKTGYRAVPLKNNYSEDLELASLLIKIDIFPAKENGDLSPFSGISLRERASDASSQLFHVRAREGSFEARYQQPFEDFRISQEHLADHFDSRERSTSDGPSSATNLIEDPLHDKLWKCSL
# [4] = molecular target: T4, SLP 76-Lck interaction (Mus musculus, UniProt P06240); test: in vivo delivery: interaction between SLP 76 and Lck in splenic cells; conditions: mice injected intraperitoneally; splenic cells stimulated
# T4 construct: from tissue; host or cells: mouse spleen (splenic cells)
# [5] = molecular target: T5, SLP 76-Gads interaction (Mus musculus, UniProt O89100); test: in vivo delivery: interaction between SLP 76 and Gads in splenic cells; conditions: mice injected intraperitoneally; splenic cells stimulated
# T5 construct: from tissue; host or cells: mouse spleen (splenic cells)
# T5 sequence (O89100 1-322): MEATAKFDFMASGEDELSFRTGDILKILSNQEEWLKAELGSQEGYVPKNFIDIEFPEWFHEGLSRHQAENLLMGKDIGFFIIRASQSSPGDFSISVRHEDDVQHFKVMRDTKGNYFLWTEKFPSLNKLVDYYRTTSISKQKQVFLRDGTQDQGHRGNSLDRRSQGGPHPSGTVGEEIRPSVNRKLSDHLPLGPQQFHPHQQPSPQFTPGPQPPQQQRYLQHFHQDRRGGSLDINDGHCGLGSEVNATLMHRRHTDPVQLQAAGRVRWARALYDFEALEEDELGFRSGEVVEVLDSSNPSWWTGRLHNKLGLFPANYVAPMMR
# [6] = tested on: PLCγ1; test: in vivo delivery: phosphorylation of PLCγ1 in splenic lymphocytes; conditions: mice treated with peptide; isolated splenic lymphocytes activated
# [7] = tested on: IL-4; test: in vivo delivery: intracytoplasmic production of IL-4 in splenic lymphocytes; conditions: mice treated with peptide; isolated splenic lymphocytes activated
# [8] = tested on: IL-13; test: in vivo delivery: intracytoplasmic production of IL-13 in splenic lymphocytes; conditions: mice treated with peptide; isolated splenic lymphocytes activated
# [9] = tested on: IL-17; test: in vivo delivery: intracytoplasmic production of IL-17 in splenic lymphocytes; conditions: mice treated with peptide; isolated splenic lymphocytes activated
# [10] = molecular target: T6, ITK (Mus musculus, UniProt Q03526); test: in vivo delivery: inducible phosphorylation of ITK on Tyr 511 in splenic lymphocytes; parameters: from tissue; host or cells: mouse spleen (splenic lymphocytes); conditions: mice treated with peptide; isolated splenic lymphocytes activated
# T6 sequence (Q03526 1-625): T2 sequence (Q03526 1-625)
# [11] = molecular target: T6, ITK; test: phosphorylation of ITK on Tyr 511 in mouse splenocytes (flow cytometry); assay type: cell-based; parameters: endogenous in cells; host or cells: primary mouse splenic lymphocytes; conditions: primary mouse splenic lymphocytes
# From the text: In view of the significant degree of ITK-SLP 76 inhibition mediated by the exemplary arginine-SLP 76 peptide conjugate of the invention, henceforth called R9-QQP, the next question was whether the exemplary R9-QQP peptide can inhibit the phosphorylation of ITK. This is important because it represents an accurate index of ITK activity; see e.g., referenced (14), below. Furthermore, the data described above have been performed by using the Jurkat T cell line. Even though this is a very useful cellular model for research, it is a leukemic cell line and thus, data obtained with this model should be confirmed in a more normal physiological substrate. Therefore, we also tested the effect of R9-QQP on primary mouse splenic lymphocytes.
# as §1
sequence,measurement,setting,value
RRRRRRRRRQQPPVPPQRPMA [R9-QQP],effect on phosphorylation of ITK on Tyr 511,[1],inhibited
same,effect on stimulation-induced association between ITK and SLP 76,[2],disrupted
same,effect on interaction of PLCγ1 with SLP 76,[3],not affected; also recorded: does not inhibit
same,effect on interaction of Lck with SLP 76,[4],not affected
same,effect on interaction of Gads with SLP 76,[5],not affected
same,effect on phosphorylation of PLCγ1,[6],inhibited but to a slightly lesser extent
same,effect on IL-4 production (type 2 cytokine),[7],inhibited
same,effect on IL-13 production (type 2 cytokine),[8],inhibited
same,effect on IL-17 production,[9],neither was
same,effect on ITK phosphorylation,[10],inhibited in a dose-dependent manner
same,effect on phosphorylation of ITK on Tyr 511,[11],inhibited
